From patent US20090297591A1, “Compositions And Methods For The Transdermal Delivery Of Pharmaceutical Compounds” (priority 2008, published 2009)
Some entries share one result that the patent states for a list of compounds.

Assay: Solubility of the active ingredient in polyacrylate adhesive
Format: physicochemical
Conditions: base form

Structure (SMILES): CCN(C)C(=O)Oc1cccc([C@H](C)N(C)C)c1 [Rivastigmine]
- Solubility in polyacrylate adhesives: greater than 10%
